Primary screen of a compound library

Sequences of proteins named here, by UniProt entry; tags and fusion partners are left off.
UniProt E9BF75, entry or part of it: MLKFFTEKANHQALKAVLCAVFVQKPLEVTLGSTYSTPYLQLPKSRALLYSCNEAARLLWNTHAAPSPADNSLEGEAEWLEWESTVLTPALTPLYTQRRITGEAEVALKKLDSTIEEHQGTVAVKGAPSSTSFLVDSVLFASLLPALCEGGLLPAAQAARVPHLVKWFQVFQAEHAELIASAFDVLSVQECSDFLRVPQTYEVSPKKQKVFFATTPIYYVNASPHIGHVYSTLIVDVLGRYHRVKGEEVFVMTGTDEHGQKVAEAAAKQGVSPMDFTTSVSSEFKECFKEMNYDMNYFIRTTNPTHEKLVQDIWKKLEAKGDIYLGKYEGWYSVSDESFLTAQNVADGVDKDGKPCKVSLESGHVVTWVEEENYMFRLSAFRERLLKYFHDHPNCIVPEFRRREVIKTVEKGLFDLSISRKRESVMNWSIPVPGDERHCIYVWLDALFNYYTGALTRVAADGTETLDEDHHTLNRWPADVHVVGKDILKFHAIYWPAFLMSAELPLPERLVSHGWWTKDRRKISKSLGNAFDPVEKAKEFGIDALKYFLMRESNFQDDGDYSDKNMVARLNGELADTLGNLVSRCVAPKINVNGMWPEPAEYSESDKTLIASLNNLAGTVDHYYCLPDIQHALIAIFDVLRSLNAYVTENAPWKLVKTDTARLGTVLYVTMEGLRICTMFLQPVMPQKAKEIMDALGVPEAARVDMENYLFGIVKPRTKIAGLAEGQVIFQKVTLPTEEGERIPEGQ

A: 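Methionyl-tRNA synthetase (putative), Leishmania donovani (UniProt E9BF75). Primary screen of methionyl-tRNA synthetase; the read-out is not stated. The test concentration is not given. The values are filed as inhibition. About 68,000 compounds were tested under these conditions; 0.035% (about 24) showed 50% or more at least once.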
B: 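Assay on Mycobacterium tuberculosis, filed only as a heat shock assay from Cornell; the read-out is not stated. The concentration is filed as 10 mM, unlikely as a test dose, so the dose is not known. Higher reads as stronger inhibition (inferred: compounds with an IC50 in retests scored well above the rest). About 69,000 compounds were tested under these conditions; 1.4% (about 930) showed 50% or more at least once.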

All values are in %.
How 0% and 100% were set is not recorded. Most values in the screen are low, and negative values occur.
This is an unselected part of the compounds tested.
A dash means the value is not listed here; it may have been measured.

structure	A	B
O=C(NCCc1ccccc1)c1cn(CCNCc2cccnc2)nn1	11.34	14.28
CN(C)CCN1CCc2c(nnn2C)C1COCc1ccccc1.O=C(O)C(F)(F)F.O=C(O)C(F)(F)F (stereo not shown)	-	-23.85
COc1ccc(C)cc1CC(=O)NC1(C#N)CCOCC1	22.1	-12.48
O=C(O)C(F)(F)F.O=C(O)C(F)(F)F.[H][C@@]12COC[C@]1(COc1ncccc1F)CN(c1cc(OC)ncn1)C2	-	-28.64
CC(C)N[C@@H]1CO[C@H](CNC(=O)c2cccs2)[C@H]1O	6.044	-36.92
CSc1ccc(C(=O)N2C[C@H]3CC[C@@H]2CN(Cc2ccccc2)C3)cc1	13.33	-
c1cc2nc(C3CCN(CC4CC4)CC3)nn2cc1N1CCCC1	24.5	-
CCCn1nc2c(cc1=O)CN(CC(=O)N(C)c1nccs1)CC2	18.56	4.301
NC(=O)C1CCN(C(=O)c2ccc(OCc3cscn3)cc2)CC1	7.731	-12.83
CC(C)(C)C(=O)NCCC(=O)N1CCC(Nc2cccnn2)CC1	10.34	-10.34
COc1cccc2sc(N3CCN(C(=O)c4cc(C)on4)CC3)nc12	12.2	101.6
CN(C)CCn1c(=O)oc2ccc(NC(=O)C3CCCO3)cc21 (stereo not shown)	15.61	15.03
COc1cccc(OC2CN(C(=O)c3c(C)noc3C)C2)c1	5.036	-2.707
CC(C)CN1CCC2(CC1)C(=O)Nc1ccc(C(=O)N(C)C)cc12.O=C(O)C(F)(F)F	-	4.759

Once more, the final 2:

| structure | A | B |
|---|---|---|
| `COc1cccc(OC2CN(C(=O)c3c(C)noc3C)C2)c1` | 5.036 | -2.707 |
| `CC(C)CN1CCC2(CC1)C(=O)Nc1ccc(C(=O)N(C)C)cc12.O=C(O)C(F)(F)F` | - | 4.759 |

Measurements from “University of Dundee, Small-Polar-MMV Screening Library” (2021), ChEMBL document CHEMBL3988442.